One compound from article PMC10058761, “Heart-Type Fatty Acid Binding Protein Binds Long-Chain Acylcarnitines and Protects against Lipotoxicity” (International Journal of Molecular Sciences, 2023) can be followed below.

Protein sequences, listed by entry. Tags and fused reporters are not part of them.
UniProt P05413, whole entry: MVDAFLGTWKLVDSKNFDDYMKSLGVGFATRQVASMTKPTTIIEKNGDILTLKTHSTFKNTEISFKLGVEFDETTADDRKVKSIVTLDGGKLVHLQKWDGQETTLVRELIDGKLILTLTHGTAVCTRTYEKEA

Each structure is given as a SMILES string. A number of entries come with more than one value. Only these are listed. There may be further records. Values given together read as repeated measurements on other runs, samples or individuals.

The experiment deals with human FABP3 (Homo sapiens, UniProt P05413). Briefly: ITC determination of heat capacity change at 16, 25 and 37 °C. It counts as binding. The conditions noted are these: KPi with 0.1% TX; ΔH at 16, 25, 37 °C, linear regression.

Regarding `CCCCCCCCCCCC(=O)O` [C12:0, laurate], the ΔCp is −0.22 kcal∙mol^−1∙K^−1 and −0.21 ± 0.02 kcal∙mol^−1∙K^−1.
